# Reference: paper PMC13293125
# How the values were obtained:
# [1] = molecular target: T1, RFP–AtVPS52 (Arabidopsis) (UniProt Q94KD3); test: co-IP; proteins co-expressed in N. benthamiana by agroinfiltration, with or without the other effector (myc–Mp1 or GFP–Mp58); lysate in GTEN buffer with 0.2% Triton X-100, 10 mM DTT; RFP-trap, 4 °C, 2 h; blot
# T1 sequence: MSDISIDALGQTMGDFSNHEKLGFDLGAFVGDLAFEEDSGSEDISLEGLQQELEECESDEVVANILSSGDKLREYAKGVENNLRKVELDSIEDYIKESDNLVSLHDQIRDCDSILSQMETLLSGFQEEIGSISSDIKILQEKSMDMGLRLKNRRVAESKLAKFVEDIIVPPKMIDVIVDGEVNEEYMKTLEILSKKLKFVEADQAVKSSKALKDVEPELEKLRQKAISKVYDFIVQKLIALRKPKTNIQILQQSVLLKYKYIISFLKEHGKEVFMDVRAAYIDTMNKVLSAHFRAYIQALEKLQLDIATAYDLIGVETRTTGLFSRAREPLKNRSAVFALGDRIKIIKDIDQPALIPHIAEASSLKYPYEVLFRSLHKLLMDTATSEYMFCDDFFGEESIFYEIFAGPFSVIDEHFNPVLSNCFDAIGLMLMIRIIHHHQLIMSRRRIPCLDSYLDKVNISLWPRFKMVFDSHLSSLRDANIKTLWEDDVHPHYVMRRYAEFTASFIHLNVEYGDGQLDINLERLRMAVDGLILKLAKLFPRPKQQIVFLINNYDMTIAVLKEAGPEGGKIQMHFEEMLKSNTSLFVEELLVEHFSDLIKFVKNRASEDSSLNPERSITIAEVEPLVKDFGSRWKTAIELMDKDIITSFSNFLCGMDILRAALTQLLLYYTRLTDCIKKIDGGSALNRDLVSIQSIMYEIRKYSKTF
# [2] = molecular target: T2, His–AtVPS52^1–170 (Arabidopsis) (UniProt Q94KD3); test: pull-down; His- and GST-tagged proteins expressed individually in E. coli, lysates combined, IMAC of the His-tagged protein, eluates blotted against GST
# T2 sequence: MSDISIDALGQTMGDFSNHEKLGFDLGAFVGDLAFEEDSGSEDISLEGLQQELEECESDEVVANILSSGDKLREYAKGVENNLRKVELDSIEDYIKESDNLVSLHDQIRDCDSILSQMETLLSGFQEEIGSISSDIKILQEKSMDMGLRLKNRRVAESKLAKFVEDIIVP
Substance,binding [1],binding [2]
GFP–Mp58 (Myzus persicae),binds,
myc–Mp1 (Myzus persicae),binds,
GST–Mp1 (Myzus persicae),,binds
GFP–Mp1 (Myzus persicae),binds,

# Results are given in words; binding and its absence hold for the method and conditions named. In cells and extracts the contact can be indirect. A result given as binding can be weak or reduced; the word gives no strength. For some of these results: Sequences can lack the tags named with a protein.
